The values are deposited in ChEMBL (CHEMBL3988442, “University of Dundee, Small-Polar-MMV Screening Library” (2021)).

Mtb glucose medium: 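Growth of Mycobacterium tuberculosis over 3 days (7H9 medium with glucose and tyloxapol); the read-out is not stated. Compounds at 50 µM. Higher reads as more growth inhibition (inferred: compounds with an IC50 in retests scored well above the rest). About 69,000 compounds were tested under these conditions; 1.1% (about 760) showed 50% or more at least once.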
Mtb cholesterol medium: 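Growth of Mycobacterium tuberculosis over 4 days (cholesterol / DPPC medium with tyloxapol); the read-out is not stated. Compounds at 50 µM. The record gives no direction; compounds that gave an IC50 in retests scored well above the rest, so higher reads as more growth inhibition. About 69,000 compounds were tested under these conditions; 0.54% (about 370) showed 50% or more at least once.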

Values are the deposited “Percent Effect”, in %. The controls that fix the scale are not given in the record; negative values are as filed. The compounds are a random part of those screened. Two or more numbers in one place are separate tests of the same structure; such repeats can differ widely.

structure | Mtb glucose medium | Mtb cholesterol medium
Cl.O=C1CC2(CCCNC2)C(=O)N1Cc1cccc(F)c1 (configuration not stated) | 2.059% | 7.739%
Cc1cnn(CC2CCCN2Cc2nc(N)c3ccccc3n2)c1 (configuration not stated) | -26.15% | -52.05%
COC(=O)c1cc(CN2CCC(c3noc(C)n3)CC2)c(C)s1 | 5.146% | -1.155% and 5.499%
CC1CCCN(C(=O)NCCCn2cncn2)C1 (configuration not stated) | 31.35% | -2.448%
O=C(Cc1ccccn1)N1CCC2(CC1)CN(c1ncccn1)CCO2.O=C(O)C(F)(F)F.O=C(O)C(F)(F)F | -26.3% | -34% and -7.782%
CC(CNS(N)(=O)=O)Oc1ccc(Cl)cc1 (configuration not stated) | 13.04% | -6.64%
CCOCCCC(=O)Nc1ccc(OCc2noc(C3CC3)n2)cc1 | 7.434% and -7.877% | -3.431%
Cn1c(N)nnc1SCC1OCCc2ccccc21 (configuration not stated) | -3.779% | -13.11%
CCc1n[nH]c(C2CN(C(=O)c3cnc[nH]3)CCO2)n1 (configuration not stated) | 25.42% | -18.57%
CNC(=O)N1CCC2(COCc3c(C)nc(NCc4ccco4)nc32)C1 (configuration not stated) | 41.49% and -8.179% | 2.499%
CCN1CC(C(=O)NCc2noc(Cc3ccccc3)n2)CCC1=O (configuration not stated) | -26.12% and -6.786% | -3.245%
CC1(NC(=O)Cc2csc(NC(=O)c3ccccc3)n2)CCS(=O)(=O)C1 (configuration not stated) | 6.963% | -9.702%
O=C1NCCN1C1CCN(Cc2coc(-c3ccccc3)n2)CC1 | 3.113% | -0.3056%
O=C(Cc1ccccc1)N1CCC2(CC1)CN(c1ncccn1)CCO2 | -21.73% | -12.35% and -9.363%
O=C(NCc1nncn1-c1ccccc1)C1CCCCC1 | -28.86% | -11.81%
CC(=O)N1CCCC(C(=O)N2CCC(=Cc3cccc(F)c3)CC2)C1 (configuration not stated) | -1.313% and -0.5314% | -0.07122%
COc1ccc(-c2cc(=O)n3c(n2)CCCCC3)cc1 | 5.374% | 0.1435%
O=C(O)C(F)(F)F.[H][C@@]12CCN(S(C)(=O)=O)CC[C@]1(C(=O)N1CCCC1)CCN2CC | 2.924% | 12.9%
Cc1nc(C)n(CC2CCCN2Cc2nc(N)c3ccccc3n2)n1 (configuration not stated) | -3.855% | -17.04%
O=C(CCNC(=O)C1CCCC1)NCc1ccccc1Cn1ccnc1 | 15.52% | 0.3401%
O=C(O)C1(n2ccc(-c3ccco3)n2)CCN(Cc2cccnc2)CC1 | -9.205% | 7.402%
CC(C)(C)c1ncc(C(=O)NCCS(N)(=O)=O)s1 | 23.41% | -8.431%
CC(C)Cc1noc(CN(C)C(=O)C2COc3ccccc3C2)n1 (configuration not stated) | -24.04% | -42.22%
Cc1ccc(-c2ccc(C(=O)NCCC(=O)N(C)C)c(F)c2)cc1 | 12.66% and 20.19% | -3.51%
Cc1cc(O)c(OCC(=O)/N=c2\[nH]cc(C)s2)cn1 | -3.642% and 13.3% | 4.182%
COc1ccc(-n2nnc(C(=O)NCC3CCCCC3)n2)cc1 | 9.636% and 17.09% | 8.357%
Cc1nnn2c1COCC(CNC(=O)c1ccc3[nH]ccc3c1)C2 (configuration not stated) | -9.773% | -6.496%
CCN(C(=O)CCCOc1ccccc1F)c1ccncc1 | 1.068% and 18.06% | 4.081%
CCNc1ncc(C(=O)NC2CCOCC2)cn1 | 11.89% | -5.594%
CNc1oc(COc2ccc3c(c2)OCO3)nc1C#N | -6.656% | 15.64%
CN(C)C(=O)c1cccc(C2CCN(c3ncccn3)CC2)n1 | -6.981% | 1.899%
COCCN1CCC(c2cncc(-c3ccccc3C)n2)CC1 | 19.93% | -2.261%
CN(C)C1CCC2(CCN(Cc3nccn3C)CC2)c2ccccc21.O=C(O)C(F)(F)F.O=C(O)C(F)(F)F (configuration not stated) | -0.4875% | -9.374%
CC(=O)NCCc1cc(N2CCN(C(C)=O)CC2)nc(C2CC2)n1 | -1.017% | -20.7%
CCCC(=O)N(C)Cc1cccc(OC(C)C)c1 | 15.22% and 24.93% | 25.13%
CS(=O)(=O)c1nccn1Cc1ccncc1 | 12.53% | -12.13%
Cc1nc(CN2CCCN(CCOc3ccc(C#N)cc3)CC2)no1 | -2.478% | -3.721%
CN(C)C(=O)Cn1c(C2CC2)c(CN2CCSCC2)c2cccnc21 | -4.531% | 21.36%
CCOc1c(F)cccc1C(=O)N(c1cccnc1)C(C)C | -4.421% | -3.455%
Cc1ccc(NCCCNC(=O)NCC2CCS(=O)(=O)C2)nc1 (configuration not stated) | -6.094% and 25.65% | -17.13%
CN(C)c1ccccc1C(=O)N1CCCC(c2ccc(C(=O)O)cc2)C1 (configuration not stated) | -1.122% | -13.92%
CCOCC(=O)N1CCCn2c(CN3CCOCC3)nnc2C1 | -20.75% | 8.025%
CCN1C(=O)CCCC12CCCN(C(=O)c1occc1C)C2 (configuration not stated) | 2.281% | -3.452%
COCCCNC(=O)Nc1ccc(-n2cncn2)c(C(F)(F)F)c1 | -13.74% | -26.14%
Cc1cccc(Nc2cc(C)nc(C3CCN(C(C)C)C3)n2)n1.O=CO (configuration not stated) | 13.49% | 7.363% and 10.41%
COCC(=O)N1CCC(c2nc3ccc(N4CCOCC4)cn3n2)CC1 | 10.02% and -3.625% | 5.476%
Cc1ccc(CNC(=O)CCN2CCOC(C(F)(F)F)C2)cc1 (configuration not stated) | 3.556% and -10.71% | -0.2406% and -9.194%
CN(C)c1nccc(N(C)Cc2nc3ccccc3n2C)n1 | -16.81% | 11.65%
CCc1n[nH]c(C2CN(Cc3nnc(C4CCC4)o3)CCO2)n1 (configuration not stated) | -10.71% | -21.46%
CN(CC(C)(CO)CO)C(=O)Nc1cc(F)cc(Cl)c1 | 4.906% and 1.59% | 11.3%
CC(C)Oc1cc(N2CCN(Cc3ccsc3)C(CCO)C2)nc(N)n1 (configuration not stated) | -9.035% and -2.277% | -15.9%
Cc1nn(-c2ncnc3[nH]cnc23)c2c1C(C(C)C)CC(=O)N2 (configuration not stated) | 0.397% and 8.364% | 14.57%
COC(=O)CCN1CCCC1c1cccc2c1OCCO2 (configuration not stated) | 6.535% | 24.64%
Cc1cc(COC(=O)[C@@H]2Cc3ccccc3CN2S(C)(=O)=O)no1 | -9.12% | -13.76%
CCN(CC)S(=O)(=O)N1CCCC1CC(=O)c1cccs1 (configuration not stated) | 14.65% | 1.778% and -2.465%
O=S(=O)(CCNCc1cccc2c1OCCO2)N1CCOCC1 | -37.55% | -11%
O=C(N1CCCC1)N1CCc2ncnc(C3CCOC3)c2CC1 (configuration not stated) | -4.955% | 0.223%
[H][C@@]12CN(C(=O)c3ccc[nH]3)C[C@]1([H])C(=O)N(Cc1cccc(F)c1)C2 | -4.391% | -29.9%
COCCN1CCCC(Cc2ccc(N3CCOCC3)nn2)C1 (configuration not stated) | -14.47% | -6.338%
CN1CC2(CCN(C(=O)c3ccc4c(=O)n(C)cnc4c3)CC2)CC1=O | 1.344% | -4.219% and 4.997%